Record: PubChem BioAssay AID743121 (NCATS, 2013)

Assay: 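Knock-downs that sensitise breast cancer cells to camptothecin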 (primary screen)
System: MDA-MB-231 cells, a human breast cancer line
Reagents: single siRNA against human genes, 20 nM siRNA (0.8 pmol per well)
Time to read-out: 120 h (drug added 48 h after transfection, read 72 h later)
Challenge: camptothecin 20 nM (about EC30) for 72 h; vehicle 0.1% DMSO in parallel plates
Read-out: 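CellTiter-Glo ATP signal, scaled to control siRNA as percent viability; sensitisation given as log2 of untreated divided by camptothecin-treated viability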
Scale: log2 vehicle/camptothecin viability: higher = stronger sensitisation to camptothecin
Hit rule: 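Each gene scored by redundant siRNA activity (RSA) over its individual siRNA ratios; a gene is called active at p < 0.001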
Here is one part, drawn at random, of about 26,000 deposited reagents. 167 of them (0.63%) were called active. 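Calls are per gene from RSA p-values that are not deposited; an individual active-marked siRNA can sensitise only weakly.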 A number with no mark means an inactive call. Reagents against one gene are numbered here. Further read-outs or replicates are left out here.

| target | siRNA no. | log2 vehicle/camptothecin viability |
| --- | --- | --- |
| METTL6 | 1 | -0.208 |
| METTL6 | 2 | -0.0769 |
| METTL6 | 3 | 0.55 |
| XAB2 | 1 | -0.286 |
| XAB2 | 2 | -0.262 |
| XAB2 | 3 | -0.123 |
| XAB2 | 4 | -0.545 |
| GUCA2B | 1 | -0.155 |
| GUCA2B | 2 | -0.177 |
| GUCA2B | 3 | 0.147 |
| GUCA2B | 4 | -0.0552 |
| TRIM51BP | 1 | -0.33 |
| TRIM51BP | 2 | -0.0634 |
| ARSL | 1 | 0.182 |
| ARSL | 2 | 0.0979 |
| ARSL | 3 | 0.00304 |
| ARSL | 4 | -0.0422 |
| CUBN | 1 | -0.177 |
| CUBN | 2 | -0.3 |
| CUBN | 3 | 1.37 |
| CUBN | 4 | 0.371 |
| DUSP2 | 1 | -0.112 |
| DUSP2 | 2 | -0.0839 |
| DUSP2 | 3 | -0.0548 |
| DUSP2 | 4 | -0.531 |
| PTH | 1 | -0.178 |
| PTH | 2 | 0.0187 |
| PTH | 3 | -0.0112 |
| PTH | 4 | -0.149 |

Sorted by “log2 vehicle/camptothecin viability” (ascending): some entries from above
| target | siRNA no. | log2 vehicle/camptothecin viability |
| --- | --- | --- |
| DUSP2 | 1 | -0.112 |
| DUSP2 | 2 | -0.0839 |
